From the supplement of paper PMC12889115
This is one part of the list. Values are raw readings; no control value is given beside them.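 First-pass screen: polymyxin B was added at a level that permeabilizes the Salmonella outer membrane while sparing the inner membrane. DMSO wells, with and without polymyxin B, defined maximum growth. Because plates differed from one another, each plate's data were ranked separately and the compounds with the lowest OD600 were carried forward as hits.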

System: Salmonella enterica serovar Typhimurium SL1344
Experiment: bacterial growth OD600 after 18 h with compound and polymyxin B; higher = more bacterial growth (less inhibition)
Details: 50 µM, Mueller-Hinton broth

## COc1ccc(C(=O)N2CCC3(CC2)c2ccccc2[C@@H](NC(=O)COc2ccccc2)[C@@H]3OC)o1
Polymyxin B 0.75 µg/mL
  bacterial growth OD600: 0.774

## O=C(CCC1(Cc2ccc3ccccc3c2)CCC(=O)N1)NCC1COc2ccccc2O1 (centres undefined)
Polymyxin B 0.75 µg/mL
  bacterial growth OD600: 0.834

## Cc1ocnc1C(=O)N1CCC2(CCCN(Cc3ccccc3F)C2=O)C1 (centres undefined)
Polymyxin B 1 µg/mL
  bacterial growth OD600: 1.22

## Cc1ccc(CC2(CCC(=O)NCc3cc(C(F)(F)F)ccc3F)CCC(=O)N2)cc1 (centres undefined)
Polymyxin B 0.75 µg/mL
  bacterial growth OD600: 0.749

## COc1ccccc1C(=O)N1CCCC(Nc2ccc(C)c(C)c2)C1 (centres undefined)
Polymyxin B 1 µg/mL
  bacterial growth OD600: 0.916

## COc1cccc(CC(C2CCN(C(=O)c3ccc(F)cc3)CC2)N(C)C(=O)c2ccn(C)n2)c1 (centres undefined)
Polymyxin B 0.75 µg/mL
  bacterial growth OD600: 0.823

## CCCn1ncc(CN2CCCC(CO)(CCCc3ccccc3)C2)c1C (centres undefined)
Polymyxin B 0.75 µg/mL
  bacterial growth OD600: 0.828

## Cc1ccc(CNC(=O)Cn2nnnc2CN2CCCC2)s1
Polymyxin B 1 µg/mL
  bacterial growth OD600: 0.831

## CC(NC(=O)c1cc(Cn2cnc3ccccc32)[nH]n1)c1cccs1 (centres undefined)
Polymyxin B 1 µg/mL
  bacterial growth OD600: 0.981
